Data taken from the supplement of paper PMC8728848.
This is one part of the list.

Assays:
Assay in all cases: glycan array binding signal (z-score within array); higher = stronger binding
Settings in all cases: glycan notation: IUPAC condensed, linker removed
[1] = target: Gal(b1-4)GlcNAc(b1-3)Gal(b1-4)GlcNAc(b1-3)Gal(b1-4)GlcNAc(b1-3)Gal(b1-4)GlcNAc(b1-2)Man(a1-3)[Gal(b1-4)GlcNAc(b1-3)Gal(b1-4)GlcNAc(b1-3)Gal(b1-4)GlcNAc(b1-3)Gal(b1-4)GlcNAc(b1-2)Man(a1-6)]Man(b1-4)GlcNAc(b1-4)GlcNAc
Procedure, shortened: (§1)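 Arrays were curated from the Consortium for Functional Glycomics database, 3228 in total, and kept only where the protein sequence was available. Binding is expressed as a within-array Z-score. This score was averaged across arrays of the same protein sequence at different concentrations or buffers and across linkers, and negative values can be read as non-binding.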

[2] = target: Gal(b1-4)GlcNAc(b1-3)Gal(b1-4)GlcNAc(b1-3)Gal(b1-4)GlcNAc(b1-3)Gal(b1-4)GlcNAc(b1-2)Man(a1-3)[Gal(b1-4)GlcNAc(b1-3)Gal(b1-4)GlcNAc(b1-3)Gal(b1-4)GlcNAc(b1-3)Gal(b1-4)GlcNAc(b1-2)Man(a1-6)]Man(b1-4)GlcNAc(b1-4)[Fuc(a1-6)]GlcNAc
Procedure, shortened: as §1

[3] = target: Gal(b1-4)GlcNAc(b1-3)Gal(b1-4)GlcNAc(b1-3)Gal(b1-4)GlcNAc(b1-3)Gal(b1-4)GlcNAc(b1-2)[Gal(b1-4)GlcNAc(b1-3)Gal(b1-4)GlcNAc(b1-3)Gal(b1-4)GlcNAc(b1-3)Gal(b1-4)GlcNAc(b1-6)]Man(a1-6)[Gal(b1-4)GlcNAc(b1-3)Gal(b1-4)GlcNAc(b1-3)Gal(b1-4)GlcNAc(b1-3)Gal(b1-4)GlcNAc(b1-2)Man(a1-3)]Man(b1-4)GlcNAc(b1-4)[Fuc(a1-6)]GlcNAc
Procedure, shortened: as §1

[4] = target: Gal(b1-4)GlcNAc(b1-3)Gal(b1-4)GlcNAc(b1-3)Gal(b1-4)GlcNAc(b1-3)Gal(b1-4)GlcNAc(b1-3)Gal(b1-4)GlcNAc(b1-2)Man(a1-3)[Gal(b1-4)GlcNAc(b1-3)Gal(b1-4)GlcNAc(b1-3)Gal(b1-4)GlcNAc(b1-3)Gal(b1-4)GlcNAc(b1-3)Gal(b1-4)GlcNAc(b1-2)Man(a1-6)]Man(b1-4)GlcNAc(b1-4)GlcNAc
Procedure, shortened: as §1

[5] = target: Gal(b1-4)GlcNAc(b1-3)Gal(b1-4)GlcNAc(b1-3)Gal(b1-4)GlcNAc(b1-3)Gal(b1-4)GlcNAc(b1-3)Gal(b1-4)GlcNAc(b1-2)Man(a1-3)[Gal(b1-4)GlcNAc(b1-3)Gal(b1-4)GlcNAc(b1-3)Gal(b1-4)GlcNAc(b1-3)Gal(b1-4)GlcNAc(b1-3)Gal(b1-4)GlcNAc(b1-2)Man(a1-6)]Man(b1-4)GlcNAc(b1-4)[Fuc(a1-6)]GlcNAc
Procedure, shortened: as §1

[6] = target: Gal(b1-4)GlcNAc(b1-3)Gal(b1-4)GlcNAc(b1-3)Gal(b1-4)GlcNAc(b1-3)Gal(b1-4)GlcNAc(b1-3)Gal(b1-4)GlcNAc(b1-2)[Gal(b1-4)GlcNAc(b1-3)Gal(b1-4)GlcNAc(b1-3)Gal(b1-4)GlcNAc(b1-3)Gal(b1-4)GlcNAc(b1-3)Gal(b1-4)GlcNAc(b1-6)]Man(a1-6)[Gal(b1-4)GlcNAc(b1-3)Gal(b1-4)GlcNAc(b1-3)Gal(b1-4)GlcNAc(b1-3)Gal(b1-4)GlcNAc(b1-3)Gal(b1-4)GlcNAc(b1-2)Man(a1-3)]Man(b1-4)GlcNAc(b1-4)[Fuc(a1-6)]GlcNAc
Procedure, shortened: as §1

[7] = target: Gal(b1-4)GlcNAc(b1-3)Gal(b1-4)GlcNAc(b1-3)Gal(b1-4)GlcNAc(b1-3)Gal(b1-4)GlcNAc(b1-3)Gal(b1-4)GlcNAc(b1-3)Gal(b1-4)GlcNAc(b1-2)Man(a1-3)[Gal(b1-4)GlcNAc(b1-3)Gal(b1-4)GlcNAc(b1-3)Gal(b1-4)GlcNAc(b1-3)Gal(b1-4)GlcNAc(b1-3)Gal(b1-4)GlcNAc(b1-3)Gal(b1-4)GlcNAc(b1-2)Man(a1-6)]Man(b1-4)GlcNAc(b1-4)GlcNAc
Procedure, shortened: as §1

[8] = target: Gal(b1-4)GlcNAc(b1-3)Gal(b1-4)GlcNAc(b1-3)GalNAc
Procedure, shortened: as §1

[9] = target: Gal(b1-4)GlcNAc(b1-3)Gal(b1-4)GlcNAc(b1-3)[Gal(b1-4)GlcNAc(b1-3)Gal(b1-4)GlcNAc(b1-6)]GalNAc
Procedure, shortened: as §1

[10] = target: Gal(b1-4)GlcNAc(b1-3)Gal(b1-4)GlcNAc(b1-6)[Gal(b1-3)]GalNAc
Procedure, shortened: as §1

[11] = target: Gal(b1-4)GlcNAc(b1-3)Gal(b1-4)[Fuc(a1-3)]GlcNAc(b1-3)Gal(b1-4)[Fuc(a1-3)]GlcNAc
Procedure, shortened: as §1

[12] = target: Gal(b1-4)GlcNAc(b1-3)GalNAc
Procedure, shortened: as §1

[13] = target: Gal(b1-4)GlcNAc(b1-3)[Fuc(a1-3)GlcNAc(b1-6)]Gal(b1-4)Glc
Procedure, shortened: as §1

[14] = target: Gal(b1-4)GlcNAc(b1-3)[Gal(b1-4)GlcNAc(b1-6)]Gal(b1-4)GlcNAc
Procedure, shortened: as §1

[15] = target: Gal(b1-4)GlcNAc(b1-3)[GlcNAc(b1-6)]Gal(b1-4)GlcNAc
Procedure, shortened: as §1

[16] = target: Gal(b1-4)GlcNAc(b1-6)Gal(b1-4)GlcNAc
Procedure, shortened: as §1

[17] = target: Gal(b1-4)GlcNAc(b1-6)GalNAc
Procedure, shortened: as §1

[18] = target: Gal(b1-4)GlcNAc(b1-6)[Gal(b1-3)]GalNAc
Procedure, shortened: as §1

[19] = target: Gal(b1-4)GlcNAc(b1-6)[Gal(b1-4)GlcNAc(b1-3)]GalNAc
Procedure, shortened: as §1

[20] = target: Gal(b1-4)GlcNAc6P
Procedure, shortened: as §1

[21] = target: Gal(b1-6)Gal
Procedure, shortened: as §1

[22] = target: Gal3S(b1-3)GalNAc
Procedure, shortened: as §1

[23] = target: Gal3S(b1-3)GlcNAc
Procedure, shortened: as §1

[24] = target: Gal3S(b1-3)[Fuc(a1-4)]GlcNAc
Procedure, shortened: as §1

[25] = target: Gal3S(b1-4)Glc
Procedure, shortened: as §1

[26] = target: Gal3S(b1-4)Glc6S
Procedure, shortened: as §1

[27] = target: Gal3S(b1-4)GlcNAc
Procedure, shortened: as §1

[28] = target: Gal3S(b1-4)[Fuc(a1-3)]Glc6S
Procedure, shortened: as §1

[29] = target: Gal3S(b1-4)[Fuc(a1-3)]GlcNAc
Procedure, shortened: as §1

[30] = target: Gal3S(b1-4)[Fuc(a1-3)]GlcNAc6S
Procedure, shortened: as §1

[31] = target: Gal3S4S(b1-4)GlcNAc
Procedure, shortened: as §1

[32] = target: Gal3S6S(b1-4)GlcNAc
Procedure, shortened: as §1

[33] = target: Gal3S6S(b1-4)GlcNAc6S
Procedure, shortened: as §1

[34] = target: Gal4S(b1-4)GlcNAc
Procedure, shortened: as §1

[35] = target: Gal4S6S(b1-4)GlcNAc
Procedure, shortened: as §1

[36] = target: Gal6P(b1-4)GlcNAc
Procedure, shortened: as §1

[37] = target: Gal6S(b1-3)GlcNAc
Procedure, shortened: as §1

[38] = target: Gal6S(b1-3)GlcNAc6S
Procedure, shortened: as §1

B1: Epa19 (Candida glabrata) (protein)
chain: MGSSHHHHHHSSGLVPRGSHMASSKDPTRFPIGCSPQVLKTQPGLAVKLYSYGHPVPGCSYITYQYPDFPRSGYKKERKLADITGVNGKIDIDLKPNDPCRVLTGHLPSNYNYPDTLTYTNFTMILYGYFQPKVTGYHTFNLEADDLLFMNLGAGNAFDCCKAESTLDNFGNYQSYSLWGSDYAKANITVFLVSGVYYPIRLFYVNRDNNAVIDFSFTTEFDKEKVHDFTSYFFSASDGEQCPGSV
glycan array binding signal (z-score) [1]: -0.168 | glycan array binding signal (z-score) [2]: 0.518 | glycan array binding signal (z-score) [3]: 0.024 | glycan array binding signal (z-score) [4]: 0.415 | glycan array binding signal (z-score) [5]: 0.942 | glycan array binding signal (z-score) [6]: -0.151 | glycan array binding signal (z-score) [7]: 0.913 | glycan array binding signal (z-score) [8]: 0.883 | glycan array binding signal (z-score) [9]: 1.4 | glycan array binding signal (z-score) [10]: 0.735 | glycan array binding signal (z-score) [11]: -0.534 | glycan array binding signal (z-score) [12]: -0.22 | glycan array binding signal (z-score) [13]: 0.024 | glycan array binding signal (z-score) [14]: -0.482 | glycan array binding signal (z-score) [15]: -1.47 | glycan array binding signal (z-score) [16]: -0.361 | glycan array binding signal (z-score) [17]: -0.146 | glycan array binding signal (z-score) [18]: 0.35 | glycan array binding signal (z-score) [19]: -0.241 | glycan array binding signal (z-score) [20]: -0.08 | glycan array binding signal (z-score) [21]: -0.918 | glycan array binding signal (z-score) [22]: 0.085 | glycan array binding signal (z-score) [23]: -0.194 | glycan array binding signal (z-score) [24]: 0.786 | glycan array binding signal (z-score) [25]: -0.076 | glycan array binding signal (z-score) [26]: -0.025 | glycan array binding signal (z-score) [27]: -1.08 | glycan array binding signal (z-score) [28]: 0.933 | glycan array binding signal (z-score) [29]: 0.047 | glycan array binding signal (z-score) [30]: 0.49 | glycan array binding signal (z-score) [31]: -1.09 | glycan array binding signal (z-score) [32]: 0.045 | glycan array binding signal (z-score) [33]: 1 | glycan array binding signal (z-score) [34]: -1.34 | glycan array binding signal (z-score) [35]: -0.315 | glycan array binding signal (z-score) [36]: -0.144 | glycan array binding signal (z-score) [37]: 0.248 | glycan array binding signal (z-score) [38]: -1.01
